{
  "source": "patent US7786042B2",
  "about": "“Fluridone as an anti-inflammatory agent” (Universita' Degli Studi Di Genova, priority 2005, dated 2010)",
  "key": {"human cell types": {"tested_on": "human cell types", "experiment": "ABA content in human cell types by HPLC-MS", "assay_type": "cell-based"}, "[1]": {"tested_on": "murine microglial cell line N9", "experiment": "ABA content in murine microglia N9 by HPLC-MS", "assay_type": "cell-based", "description": "Cells from the murine microglial cell line N9 were pre-incubated with or without 50 μM fluridone for 2 hours and then stimulated with 100 ng/ml lipopolysaccharide (LPS) for 24 hours. The ABA content was measured by HPLC-MS (see Materials and Methods) and was compared with that of untreated cells (control). The results are the mean from 2 experiments.\nN9 cells were seeded (25×10^6/flask) in IMDM medium containing fetal calf serum, incubated for 3 h at 37° C. with or without 50 μM fluridone and then incubated for 3 days in the absence or in the presence of 200 ng/ml lipopolysaccharide (LPS). Cells were then recovered, washed in phosphate-buffered saline isotonic solution at pH 7.4 (PBS), resuspended in 0.5 ml water and sonicated. An aliquot from each cell lysate (10 μl) was used to assay protein content (using the method by Bradford), the rest was added to methanol (2 ml) and 1400 cpm [^3H]-ABA (Amersham, Milan, Italy) as internal standard. The acid extraction of ABA was performed in an apolar phase. A small aliquot of the extract was used to determine radioactivity (with a β-counter), allowing the calculation of the percentage of ABA recovery after-extraction. The rest of the extract was analyzed on an Agilent 1100 capillary chromatography system, with a diode array detector, equipped with a Waters Atlantis™ dC18 150×1 mm column, particle size 3 μm, coupled to an Agilent 1100 series LC/MSD Trap mass spectrometer, equipped with an orthogonal geometry electrospray source and ion trap analyser. The HPLC separation was performed at a flow rate of 30 μl/min, with buffer A (1% v/v acetic acid in water) and buffer B (90% acetonitrile and 10% buffer A) and the following gradient: from 0 to 3 min 100% A, from 3 to 35 min linearly increasing to 100% B, from 35 to 40 min 100% B. The detection wavelength was set at 254 nm. MS (ion 263.3) and MS/MS (ions 219.3; 153.4) spectra were acquired in negative ion mode in the m/z range 50-300."}},
  "note": "Several values for one entry are separate records, joined by “and”; a condition that tells them apart may be missing. Equal entries are not always repeated.",
  "data": [
    {"smiles": "CC1=CC(=O)CC(C)(C)[C@@]1(O)/C=C/C(C)=C\\C(=O)O", "note": "(racemic) [ABA, (±)-cis, trans ABA]", "values": [
      {"measurement": "ABA content", "setting": "human cell types; Fibroblasts (skin)", "result": "9.0 ± 0.1 (n = 3) pMoles/mg proteins"},
      {"measurement": "ABA content", "setting": "human cell types; Granulocytes, freshly isolated", "result": "0.43±0.05 pMoles/mg proteins and 0.43 ± 0.05 (n = 3) pMoles/mg proteins"},
      {"measurement": "ABA content", "setting": "human cell types; Lymphocytes, freshly isolated", "result": "0.53±0.1 pMoles/mg proteins and 0.53 ± 0.1 (n = 4) pMoles/mg proteins"},
      {"measurement": "ABA content", "setting": "human cell types; Mesenchymal stem cells (bone marrow stroma precursors)", "result": "2.63 ± 0.3 (n = 3) pMoles/mg proteins"},
      {"measurement": "ABA content", "setting": "human cell types; Monocytes", "result": "12.96 ± 2.1 (n = 3) pMoles/mg proteins"},
      {"measurement": "ABA content", "setting": "human cell types; Platelets", "result": "0.033 ± 0.01 (n = 3) pMoles/mg proteins"},
      {"measurement": "intracellular ABA content", "setting": "human cell types; granulocytes stimulated 18 hours with f-MLP", "result": "0.84 ± 0.1", "unit": "pmol/mg"},
      {"measurement": "ABA content", "setting": "human cell types; lymphocytes incubated 18 hours with PMA", "result": "1.1 ± 0.4", "unit": "pmol/mg"},
      {"measurement": "increase of ABA concentration after LPS stimulation", "setting": "[1]; N9 cells", "result": "more than 4 times"},
      {"measurement": "ABA content", "setting": "[1]; N9 cells stimulated with LPS", "result": "1.3±0.2", "unit": "pMoles/mg proteins"},
      {"measurement": "ABA content", "setting": "[1]; N9 cells, unstimulated", "result": "0.3±0.05", "unit": "pMoles/mg proteins"}
    ]}
  ]
}
